No constants are given. Whether binding was seen depends on the method and setting. Binding seen in cells or lysates may run through a third protein. Binding calls can cover weak binding; strength is not graded here.

Amino acid sequences for entries named in this document (tags omitted). A change or cut given only in a name is not applied to a line headed by its entry.
UniProt Q9ESF1: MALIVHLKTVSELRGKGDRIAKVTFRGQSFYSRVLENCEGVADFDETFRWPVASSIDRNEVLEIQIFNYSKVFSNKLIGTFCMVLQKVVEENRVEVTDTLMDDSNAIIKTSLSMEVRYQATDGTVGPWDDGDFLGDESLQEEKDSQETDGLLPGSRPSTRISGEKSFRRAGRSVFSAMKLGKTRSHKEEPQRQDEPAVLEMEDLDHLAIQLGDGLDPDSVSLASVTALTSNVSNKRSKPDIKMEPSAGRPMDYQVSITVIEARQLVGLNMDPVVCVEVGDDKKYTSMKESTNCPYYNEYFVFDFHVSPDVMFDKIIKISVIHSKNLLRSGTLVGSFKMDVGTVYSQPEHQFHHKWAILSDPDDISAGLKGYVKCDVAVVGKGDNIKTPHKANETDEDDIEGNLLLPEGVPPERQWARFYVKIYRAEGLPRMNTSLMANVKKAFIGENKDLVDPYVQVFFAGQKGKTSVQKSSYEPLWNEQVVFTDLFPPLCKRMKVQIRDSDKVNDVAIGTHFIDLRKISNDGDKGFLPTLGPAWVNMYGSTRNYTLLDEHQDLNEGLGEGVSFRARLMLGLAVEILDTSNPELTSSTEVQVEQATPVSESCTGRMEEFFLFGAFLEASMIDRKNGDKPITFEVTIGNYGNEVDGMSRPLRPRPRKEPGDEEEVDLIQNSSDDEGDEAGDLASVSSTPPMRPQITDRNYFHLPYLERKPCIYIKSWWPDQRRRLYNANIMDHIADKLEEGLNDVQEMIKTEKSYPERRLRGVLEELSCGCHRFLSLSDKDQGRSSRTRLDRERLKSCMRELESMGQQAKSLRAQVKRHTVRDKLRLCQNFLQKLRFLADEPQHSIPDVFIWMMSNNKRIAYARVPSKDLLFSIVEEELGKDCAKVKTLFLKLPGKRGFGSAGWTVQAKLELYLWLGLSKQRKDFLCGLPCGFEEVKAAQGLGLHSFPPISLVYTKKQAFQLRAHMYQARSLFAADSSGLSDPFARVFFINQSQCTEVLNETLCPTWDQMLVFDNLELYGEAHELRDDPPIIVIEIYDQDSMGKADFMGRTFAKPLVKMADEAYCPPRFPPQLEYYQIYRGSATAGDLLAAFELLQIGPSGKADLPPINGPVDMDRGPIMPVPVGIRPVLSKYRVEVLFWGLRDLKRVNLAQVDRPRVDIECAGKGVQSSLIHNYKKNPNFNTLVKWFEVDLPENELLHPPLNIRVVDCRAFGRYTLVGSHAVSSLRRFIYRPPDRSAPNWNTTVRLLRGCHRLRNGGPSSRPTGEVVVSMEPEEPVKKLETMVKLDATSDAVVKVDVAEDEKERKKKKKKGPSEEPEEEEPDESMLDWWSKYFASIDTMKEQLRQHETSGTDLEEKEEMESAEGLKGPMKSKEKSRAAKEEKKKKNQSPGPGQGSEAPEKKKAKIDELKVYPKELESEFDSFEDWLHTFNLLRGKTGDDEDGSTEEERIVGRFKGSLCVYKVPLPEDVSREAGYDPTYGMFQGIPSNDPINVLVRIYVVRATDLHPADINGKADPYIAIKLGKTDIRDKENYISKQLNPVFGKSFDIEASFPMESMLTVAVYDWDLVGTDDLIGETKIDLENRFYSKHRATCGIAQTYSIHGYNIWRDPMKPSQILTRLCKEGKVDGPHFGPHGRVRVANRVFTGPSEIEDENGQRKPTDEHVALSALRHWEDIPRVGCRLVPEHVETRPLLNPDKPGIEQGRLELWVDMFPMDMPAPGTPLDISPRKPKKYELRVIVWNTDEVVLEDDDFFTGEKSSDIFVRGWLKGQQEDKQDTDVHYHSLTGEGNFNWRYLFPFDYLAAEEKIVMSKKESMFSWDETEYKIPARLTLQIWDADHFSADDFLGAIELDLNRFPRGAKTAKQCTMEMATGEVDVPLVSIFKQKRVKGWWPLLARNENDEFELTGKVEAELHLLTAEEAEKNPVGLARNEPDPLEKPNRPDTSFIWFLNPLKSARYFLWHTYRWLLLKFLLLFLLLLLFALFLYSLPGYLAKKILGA

Assay [1] deals with mouse otoferlin fragment C2ABC-HA (aa 1-632) (mouse) (UniProt Q9ESF1). The experiment in a line: co-IP; HEK293 cells co-transfected with CaMKIIδ-mcherry and C2ABC-HA, C2DEF-HA or both; lysate in TBS pH 7.4 on anti-HA agarose, 2 h at 4°C, washed with TBS-T; blots with anti-HA and anti-RFP.
Assay [2] has as its target mouse otoferlin fragment C2DEF-HA (aa 933-1920) (mouse) (UniProt Q9ESF1). The description is as above.

In the case of “full-length mcherry-tagged mouse CaMKIIδ (from UniProt Q6PHZ2-1 1-499) (enzyme)”, the results for the binding entry in assay [1] and in assay [2] were “binds” and “binds weakly”, respectively.

These data come from article PMC5632675.
